Results taken from the supplement of paper PMC10849652.
The other results are listed elsewhere or left out.

By UniProt entry, the sequences of proteins in these tests, tags left out. Where a name states a change or a piece, a line headed by the entry shows the natural chain unless it says otherwise.
UniProt Q9HAV0, whole entry, looked up: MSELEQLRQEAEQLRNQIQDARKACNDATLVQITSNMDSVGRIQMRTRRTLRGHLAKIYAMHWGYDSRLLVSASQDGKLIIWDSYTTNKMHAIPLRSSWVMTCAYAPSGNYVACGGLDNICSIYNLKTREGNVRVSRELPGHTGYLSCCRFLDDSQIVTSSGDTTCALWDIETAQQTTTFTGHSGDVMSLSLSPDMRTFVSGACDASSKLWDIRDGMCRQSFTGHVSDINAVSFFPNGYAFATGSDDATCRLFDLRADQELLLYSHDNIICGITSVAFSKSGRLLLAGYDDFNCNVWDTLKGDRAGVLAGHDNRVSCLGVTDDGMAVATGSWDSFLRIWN
UniProt Q96I76: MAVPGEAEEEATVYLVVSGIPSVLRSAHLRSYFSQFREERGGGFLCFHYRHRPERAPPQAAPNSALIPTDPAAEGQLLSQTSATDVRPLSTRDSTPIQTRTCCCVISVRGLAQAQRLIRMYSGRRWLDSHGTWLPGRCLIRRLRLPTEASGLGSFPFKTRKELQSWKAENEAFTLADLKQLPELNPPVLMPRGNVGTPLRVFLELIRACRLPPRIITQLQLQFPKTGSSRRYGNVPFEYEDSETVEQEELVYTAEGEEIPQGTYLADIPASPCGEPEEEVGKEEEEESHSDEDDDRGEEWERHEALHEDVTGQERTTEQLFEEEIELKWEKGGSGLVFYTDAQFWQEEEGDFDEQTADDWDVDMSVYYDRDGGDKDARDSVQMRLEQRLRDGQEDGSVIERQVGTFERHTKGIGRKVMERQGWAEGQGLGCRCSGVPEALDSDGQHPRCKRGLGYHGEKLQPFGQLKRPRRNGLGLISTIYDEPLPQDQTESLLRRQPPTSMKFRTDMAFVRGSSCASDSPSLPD
UniProt P49915: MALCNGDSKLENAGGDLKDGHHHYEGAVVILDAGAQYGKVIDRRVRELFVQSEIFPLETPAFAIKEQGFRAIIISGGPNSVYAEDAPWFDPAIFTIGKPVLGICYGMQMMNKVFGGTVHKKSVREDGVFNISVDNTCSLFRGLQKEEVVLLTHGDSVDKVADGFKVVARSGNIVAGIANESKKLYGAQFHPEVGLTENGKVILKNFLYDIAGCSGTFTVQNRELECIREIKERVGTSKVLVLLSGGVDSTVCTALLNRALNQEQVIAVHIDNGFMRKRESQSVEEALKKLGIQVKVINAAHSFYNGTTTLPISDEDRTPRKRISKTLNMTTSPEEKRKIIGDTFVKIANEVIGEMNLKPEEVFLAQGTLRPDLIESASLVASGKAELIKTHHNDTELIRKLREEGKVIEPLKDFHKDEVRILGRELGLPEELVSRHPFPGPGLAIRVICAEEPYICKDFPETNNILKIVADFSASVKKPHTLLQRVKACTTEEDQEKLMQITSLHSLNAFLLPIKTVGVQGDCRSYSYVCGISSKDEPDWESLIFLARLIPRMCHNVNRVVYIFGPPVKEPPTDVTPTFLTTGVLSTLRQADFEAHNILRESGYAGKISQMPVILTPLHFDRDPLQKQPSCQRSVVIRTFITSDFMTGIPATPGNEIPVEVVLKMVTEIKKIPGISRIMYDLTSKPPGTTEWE
UniProt Q3T906: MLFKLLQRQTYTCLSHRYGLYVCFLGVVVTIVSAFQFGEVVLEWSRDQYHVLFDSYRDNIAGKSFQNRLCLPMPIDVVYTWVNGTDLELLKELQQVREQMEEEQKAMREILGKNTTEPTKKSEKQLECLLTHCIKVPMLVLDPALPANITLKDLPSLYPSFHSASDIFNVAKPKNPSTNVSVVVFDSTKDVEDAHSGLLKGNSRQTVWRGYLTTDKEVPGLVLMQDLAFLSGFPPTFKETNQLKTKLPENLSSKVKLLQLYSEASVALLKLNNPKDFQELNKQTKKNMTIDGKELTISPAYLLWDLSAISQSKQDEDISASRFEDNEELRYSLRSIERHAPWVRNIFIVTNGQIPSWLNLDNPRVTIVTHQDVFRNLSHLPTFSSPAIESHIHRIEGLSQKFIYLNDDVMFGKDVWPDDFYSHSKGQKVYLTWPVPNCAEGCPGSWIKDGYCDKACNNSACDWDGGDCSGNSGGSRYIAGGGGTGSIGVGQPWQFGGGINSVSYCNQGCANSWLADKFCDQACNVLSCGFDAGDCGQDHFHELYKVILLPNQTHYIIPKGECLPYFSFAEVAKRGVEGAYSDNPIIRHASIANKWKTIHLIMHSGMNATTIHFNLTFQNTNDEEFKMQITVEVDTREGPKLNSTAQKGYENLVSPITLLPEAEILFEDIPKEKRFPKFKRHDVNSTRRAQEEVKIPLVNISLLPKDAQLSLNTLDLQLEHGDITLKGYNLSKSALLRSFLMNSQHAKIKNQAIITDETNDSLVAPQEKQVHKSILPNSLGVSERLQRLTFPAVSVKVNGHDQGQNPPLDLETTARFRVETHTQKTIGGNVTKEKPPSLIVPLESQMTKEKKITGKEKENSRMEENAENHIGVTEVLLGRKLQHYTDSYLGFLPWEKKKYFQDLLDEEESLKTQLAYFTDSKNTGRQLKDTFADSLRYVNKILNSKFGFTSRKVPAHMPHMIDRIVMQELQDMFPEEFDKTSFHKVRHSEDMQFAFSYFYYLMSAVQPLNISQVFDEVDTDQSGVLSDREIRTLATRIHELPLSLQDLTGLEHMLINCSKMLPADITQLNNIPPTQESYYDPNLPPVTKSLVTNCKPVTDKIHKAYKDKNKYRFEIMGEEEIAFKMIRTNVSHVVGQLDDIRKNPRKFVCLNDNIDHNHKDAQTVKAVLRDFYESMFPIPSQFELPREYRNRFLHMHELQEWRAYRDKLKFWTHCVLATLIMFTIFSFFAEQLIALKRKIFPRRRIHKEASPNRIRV
UniProt Q9NZ52: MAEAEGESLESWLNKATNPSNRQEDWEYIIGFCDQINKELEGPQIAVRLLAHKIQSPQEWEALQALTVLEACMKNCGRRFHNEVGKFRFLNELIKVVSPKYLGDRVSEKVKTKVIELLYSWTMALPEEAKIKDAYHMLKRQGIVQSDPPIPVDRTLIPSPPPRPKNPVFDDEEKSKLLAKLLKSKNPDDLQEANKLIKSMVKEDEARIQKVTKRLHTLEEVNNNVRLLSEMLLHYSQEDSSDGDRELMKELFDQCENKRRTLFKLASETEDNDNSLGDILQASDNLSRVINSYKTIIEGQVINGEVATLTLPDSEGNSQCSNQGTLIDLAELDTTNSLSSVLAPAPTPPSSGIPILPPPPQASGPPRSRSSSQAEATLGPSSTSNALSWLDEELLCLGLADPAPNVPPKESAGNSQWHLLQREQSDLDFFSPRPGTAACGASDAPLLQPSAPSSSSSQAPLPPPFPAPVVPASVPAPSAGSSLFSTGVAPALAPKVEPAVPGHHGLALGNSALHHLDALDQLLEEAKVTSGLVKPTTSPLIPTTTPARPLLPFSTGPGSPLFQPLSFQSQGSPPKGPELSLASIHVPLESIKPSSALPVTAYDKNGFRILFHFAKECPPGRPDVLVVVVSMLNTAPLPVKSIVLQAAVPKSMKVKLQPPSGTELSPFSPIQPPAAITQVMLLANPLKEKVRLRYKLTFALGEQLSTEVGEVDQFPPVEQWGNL
UniProt Q9H9Y4: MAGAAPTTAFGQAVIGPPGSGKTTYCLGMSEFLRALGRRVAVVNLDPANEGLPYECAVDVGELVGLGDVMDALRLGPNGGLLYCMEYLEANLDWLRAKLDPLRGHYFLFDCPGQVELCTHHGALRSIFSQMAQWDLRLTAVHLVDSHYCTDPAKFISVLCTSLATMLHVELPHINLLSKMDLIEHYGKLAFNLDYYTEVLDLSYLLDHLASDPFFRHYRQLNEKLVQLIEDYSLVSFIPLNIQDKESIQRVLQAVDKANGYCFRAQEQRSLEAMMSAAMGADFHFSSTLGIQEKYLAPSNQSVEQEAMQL
UniProt P63092, whole entry, looked up: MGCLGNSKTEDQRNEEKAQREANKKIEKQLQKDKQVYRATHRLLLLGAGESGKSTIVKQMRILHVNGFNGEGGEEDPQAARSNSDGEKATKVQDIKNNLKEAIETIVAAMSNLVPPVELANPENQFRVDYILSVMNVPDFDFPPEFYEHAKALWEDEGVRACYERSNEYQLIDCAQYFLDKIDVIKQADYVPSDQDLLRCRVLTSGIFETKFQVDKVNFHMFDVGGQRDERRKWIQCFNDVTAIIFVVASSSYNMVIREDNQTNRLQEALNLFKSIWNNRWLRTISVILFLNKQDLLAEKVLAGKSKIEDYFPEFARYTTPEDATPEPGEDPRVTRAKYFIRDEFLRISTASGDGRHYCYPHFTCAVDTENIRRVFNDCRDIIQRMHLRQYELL

Compound: c1ccc([C@@H]2C[C@H]2NC2CCNCC2)cc1
Experiment: log2 fold change, soluble protein after heating vs DMSO (PISA); higher = thermal stabilisation; K562 lysate, 10 uM; active = over 0.2 and 3.5 SD of the protein, either way, in both replicates (recomputed)
Outline: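 The values are log-two fold changes in thermal stability compared with solvent controls and come from duplicates. They were obtained by TMTpro 16plex LC-MS/MS, with channel sums equalised, on the supernatant after 21,000xg for 90 min. That supernatant came from crude K562 extract at 1 mg/mL protein treated with 10 μM compound for 30 min, heated for 3 min across 48°C-58°C, pooled and brought to 0.5% NP-40 at 4°C.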

| Target | log2 fold change |
| --- | --- |
| GNB4 (UniProt Q9HAV0) | inactive: -0.05 |
| GPATCH3 (UniProt Q96I76) | inactive: 0.018 |
| GOLIM4 (UniProt F8W785) | inactive: 0.08 |
| GMPS (UniProt P49915) | inactive: 0.088 |
| GNPTAB (UniProt Q3T906) | inactive: -0.055 |
| GGA3 (UniProt Q9NZ52) | inactive: -0.036 |
| GPN2 (UniProt Q9H9Y4) | inactive: -0.034 |
| GNAS isoform 3 (UniProt P63092) | inactive: 0.011 |
